{
  "source": "patent US20230210899A1",
  "key": {"[1]": {"biological_target": "T1, human myelin oligodendrocyte glycoprotein (MOG), target used for phage panning and ELISA (human) (UniProt Q16653)", "T1 sequence (looked up)": "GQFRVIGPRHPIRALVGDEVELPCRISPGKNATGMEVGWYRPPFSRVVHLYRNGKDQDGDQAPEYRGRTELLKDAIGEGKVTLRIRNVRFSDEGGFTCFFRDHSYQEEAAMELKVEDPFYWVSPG", "test": "soluble ELISA with cell lysates from 30 C and 37 C"}, "[2]": {"biological_target": "T1, human myelin oligodendrocyte glycoprotein (MOG), target used for phage panning and ELISA (human)", "test": "monoclonal phage ELISA"}, "[3]": {"biological_target": "T1, human myelin oligodendrocyte glycoprotein (MOG), target used for phage panning and ELISA (human)", "test": "QC ELISA, purified scFv-myc-6xHis"}, "[4]": {"biological_target": "T1, human myelin oligodendrocyte glycoprotein (MOG), target used for phage panning and ELISA (human)", "test": "QC ELISA titration, seven concentrations, scFv induced at 16 C"}, "[5]": {"biological_target": "T2, MOG-1 expressed on HEK293 cells (UniProt Q16653)", "T2 sequence (looked up)": "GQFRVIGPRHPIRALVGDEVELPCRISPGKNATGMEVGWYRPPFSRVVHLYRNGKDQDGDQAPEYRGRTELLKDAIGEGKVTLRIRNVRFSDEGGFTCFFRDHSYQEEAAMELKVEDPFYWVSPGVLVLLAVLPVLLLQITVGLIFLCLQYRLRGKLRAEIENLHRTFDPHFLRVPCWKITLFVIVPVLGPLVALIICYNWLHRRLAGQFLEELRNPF", "test": "FITC-labelled scFv on MOG-1 expressing HEK293 cells, fluorescence microscopy (scFv-FITC / Cell Mask Red ratio)"}},
  "note": "These are yes or no findings as the source states them, for the method shown. Some binding calls cover weakened binding; strength is not graded here. For some assays here: Where a sequence is shown, tags or fusion partners need not be part of it.",
  "data": [
    {"binder": "Clone 21 scFv (scFv) scFv: MEVQLLESGGGLVQPGGSLRLSCAASGFTFSSYAMSWVRQAPGKGLEWVSSISYSGAYTAYADSVNGRFTISRDNSKNTLYLQMNSLRAEDTAVYYCAKSGTDFDYWGQGTLVTVSSGGGGSGGGGSGGGGSTDIQMTQSPSSLSASVGDRVTITCRASQSISSYLNWYQQKPGKAPKLLIYGASNLQSGVPSRFSGSGSGTDFTLTISSLQPEDFATYYCQQSNYDPSTFGQGTKVEIK", "values": [
      {"measurement": "binding", "setting": "[1]", "value": "binds"},
      {"measurement": "binding", "setting": "[2]", "value": "binds"}
    ]},
    {"binder": "Clone 1 scFv (scFv) scFv: MEVQLLESGGGLVQPGGSLRLSCAASGFTFSSYAMSWVRQAPGKGLEWVSSISDYGNTTAYADSVKGRFTISRDNSKNTLYLQMNSLRAEDTAVYYCAKNANYFDYWGQGTLVTVSSGGGGSGGGGSGGGGSTDIQMTQSPSSLSASVGDRVTITCRASQSISSYLNWYQQKPGKAPKLLIYDASSLQSGVPSRFSGSGSGTDFTLTISSLQPEDFATYYCQQTSTYPGTFGQGTKVEIK", "values": [
      {"measurement": "binding", "setting": "[1]", "value": "binds"},
      {"measurement": "binding", "setting": "[2]", "value": "binds"}
    ]},
    {"binder": "Clone 3 scFv (scFv) scFv: MEVQLLESGGGLVQPGGSLRLSCAASGFTFSSYAMSWVRQAPGKGLEWVSSISSYGSYTGYADSVKGRFTISRDNSKNTLYLQMNSLRAEDTAVYYCAKNGYAFDYWGQGTLVTVSSGGGGSGGGGSGGGGSTDIQMTQSPSSLSASVGDRVTITCRASQSISSYLNWYQQKPGKAPKLLIYGASALQSGVPSRFSGSGSGTDFTLTISSLQPEDFATYYCQQNDASPNTFGQGTKVEIK", "values": [
      {"measurement": "binding", "setting": "[1]", "value": "binds"},
      {"measurement": "binding", "setting": "[2]", "value": "binds"}
    ]},
    {"binder": "Clone 6 scFv (scFv) scFv: MEVQLLESGGGLVQPGGSLRLSCAASGFTFSSYAMSWVRQAPGKGLEWVSTISTYGDYTTYADSVKGRFTISRDNSKNTLYLQMNSLRAEDTAVYYCAKGSYTFDYWGQGTLVTVSSGGGGSGGGGSGGGGSTDIQMTQSPSSLSASVGDRVTITCRASQSISSYLNWYQQKPGKAPKLLIYSASYLQSGVPSRFSGSGSGTDFTLTISSLQPEDFATYYCQQSNATPSTFGQGTKVEIK", "values": [
      {"measurement": "binding", "setting": "[1]", "value": "binds"},
      {"measurement": "binding", "setting": "[2]", "value": "binds"}
    ]},
    {"binder": "Clone 10 scFv (scFv) scFv: MEVQLLESGGGLVQPGGSLRLSCAASGFTFSSYAMSWVRQAPGKGLEWVSGITNYGYTTYYADSVKGRFTISRDNSKNTLYLQMNSLRAEDTAVYYCAKSSYSFDYWGQGTLVTVSSGGGGSGGGGSGGGGSTDIQMTQSPSSLSASVGDRVTITCRASQSISSYLNWYQQKPGKAPKLLIYAASALQSGVPSRFSGSGSGTDFTLTISSLQPEDFATYYCQQSAYYPDTFGQGTKVEIK", "values": [
      {"measurement": "binding", "setting": "[1]", "value": "binds"},
      {"measurement": "binding", "setting": "[2]", "value": "binds"}
    ]},
    {"binder": "Clone 13 scFv (scFv) scFv: MEVQLLESGGGLVQPGGSLRLSCAASGFTFSSYAMSWVRQAPGKGLEWVSSINSAGGSTYYADSVKGRFTISRDNSKNTLYLQMNSLRAEDTAVYYCAKNSAYFDYWGQGTLVTVSSGGGGSGGGGSGGGGSTDIQMTQSPSSLSASVGDRVTITCRASQSISSYLNWYQQKPGKAPKLLIYDASNLQSGVPSRFSGSGSGTDFTLTISSLQPEDFATYYCQQTDTYPTTFGQGTKVEIK", "values": [
      {"measurement": "binding", "setting": "[1]", "value": "binds"},
      {"measurement": "binding", "setting": "[2]", "value": "binds"}
    ]},
    {"binder": "Clone 17 scFv (scFv) scFv: MEVQLLESGGGLVQPGGSLRLSCAASGFTFSSYAMSWVRQAPGKGLEWVSSISTSGSYTAYADSVKGRFTISRDNSKNTLYLQMNSLRAEDTAVYYCAKGGYTFDYWGQGTLVTVSSGGGGSGGGGSGGGGSTDIQMTQSPSSLSASVGDRVTITCRASQSISSYLNWYQQKPGKAPKLLIYSASTLQSGVPSRFSGSGSGTDFTLTISSLQPEDFATYYCQQSDGNPTTFGQGTKVEIK", "values": [
      {"measurement": "binding", "setting": "[1]", "value": "binds"},
      {"measurement": "binding", "setting": "[2]", "value": "binds"}
    ]},
    {"binder": "Clone 1 scFv-myc-6xHis (soluble scFv from pET-26b) (scFv) scFv: MEVQLLESGGGLVQPGGSLRLSCAASGFTFSSYAMSWVRQAPGKGLEWVSSISDYGNTTAYADSVKGRFTISRDNSKNTLYLQMNSLRAEDTAVYYCAKNANYFDYWGQGTLVTVSSGGGGSGGGGSGGGGSTDIQMTQSPSSLSASVGDRVTITCRASQSISSYLNWYQQKPGKAPKLLIYDASSLQSGVPSRFSGSGSGTDFTLTISSLQPEDFATYYCQQTSTYPGTFGQGTKVEIKEFEQKLISEEDLLEHHHHHH", "values": [
      {"measurement": "binding", "setting": "[3]", "value": "binds"},
      {"measurement": "binding", "setting": "[4]", "value": "binds"}
    ]},
    {"binder": "Clone 3 scFv-myc-6xHis (soluble scFv from pET-26b) (scFv) scFv: MEVQLLESGGGLVQPGGSLRLSCAASGFTFSSYAMSWVRQAPGKGLEWVSSISSYGSYTGYADSVKGRFTISRDNSKNTLYLQMNSLRAEDTAVYYCAKNGYAFDYWGQGTLVTVSSGGGGSGGGGSGGGGSTDIQMTQSPSSLSASVGDRVTITCRASQSISSYLNWYQQKPGKAPKLLIYGASALQSGVPSRFSGSGSGTDFTLTISSLQPEDFATYYCQQNDASPNTFGQGTKVEIKEFEQKLISEEDLLEHHHHHH", "values": [
      {"measurement": "binding", "setting": "[5]", "value": "binds"},
      {"measurement": "binding", "setting": "[3]", "value": "binds"},
      {"measurement": "binding", "setting": "[4]", "value": "binds"}
    ]},
    {"binder": "Clone 6 scFv-myc-6xHis (soluble scFv from pET-26b) (scFv) scFv: MEVQLLESGGGLVQPGGSLRLSCAASGFTFSSYAMSWVRQAPGKGLEWVSTISTYGDYTTYADSVKGRFTISRDNSKNTLYLQMNSLRAEDTAVYYCAKGSYTFDYWGQGTLVTVSSGGGGSGGGGSGGGGSTDIQMTQSPSSLSASVGDRVTITCRASQSISSYLNWYQQKPGKAPKLLIYSASYLQSGVPSRFSGSGSGTDFTLTISSLQPEDFATYYCQQSNATPSTFGQGTKVEIKEFEQKLISEEDLLEHHHHHH", "values": [
      {"measurement": "binding", "setting": "[5]", "value": "binds"},
      {"measurement": "binding", "setting": "[3]", "value": "binds"},
      {"measurement": "binding", "setting": "[4]", "value": "binds"}
    ]},
    {"binder": "Clone 10 scFv-myc-6xHis (soluble scFv from pET-26b) (scFv) scFv: MEVQLLESGGGLVQPGGSLRLSCAASGFTFSSYAMSWVRQAPGKGLEWVSGITNYGYTTYYADSVKGRFTISRDNSKNTLYLQMNSLRAEDTAVYYCAKSSYSFDYWGQGTLVTVSSGGGGSGGGGSGGGGSTDIQMTQSPSSLSASVGDRVTITCRASQSISSYLNWYQQKPGKAPKLLIYAASALQSGVPSRFSGSGSGTDFTLTISSLQPEDFATYYCQQSAYYPDTFGQGTKVEIKEFEQKLISEEDLLEHHHHHH", "values": [
      {"measurement": "binding", "setting": "[3]", "value": "binds"},
      {"measurement": "binding", "setting": "[4]", "value": "binds"}
    ]},
    {"binder": "Clone 13 scFv-myc-6xHis (soluble scFv from pET-26b) (scFv) scFv: MEVQLLESGGGLVQPGGSLRLSCAASGFTFSSYAMSWVRQAPGKGLEWVSSINSAGGSTYYADSVKGRFTISRDNSKNTLYLQMNSLRAEDTAVYYCAKNSAYFDYWGQGTLVTVSSGGGGSGGGGSGGGGSTDIQMTQSPSSLSASVGDRVTITCRASQSISSYLNWYQQKPGKAPKLLIYDASNLQSGVPSRFSGSGSGTDFTLTISSLQPEDFATYYCQQTDTYPTTFGQGTKVEIKEFEQKLISEEDLLEHHHHHH", "values": [
      {"measurement": "binding", "setting": "[3]", "value": "binds"},
      {"measurement": "binding", "setting": "[4]", "value": "binds"}
    ]},
    {"binder": "Clone 17 scFv-myc-6xHis (soluble scFv from pET-26b) (scFv) scFv: MEVQLLESGGGLVQPGGSLRLSCAASGFTFSSYAMSWVRQAPGKGLEWVSSISTSGSYTAYADSVKGRFTISRDNSKNTLYLQMNSLRAEDTAVYYCAKGGYTFDYWGQGTLVTVSSGGGGSGGGGSGGGGSTDIQMTQSPSSLSASVGDRVTITCRASQSISSYLNWYQQKPGKAPKLLIYSASTLQSGVPSRFSGSGSGTDFTLTISSLQPEDFATYYCQQSDGNPTTFGQGTKVEIKEFEQKLISEEDLLEHHHHHH", "values": [
      {"measurement": "binding", "setting": "[5]", "value": "binds"},
      {"measurement": "binding", "setting": "[3]", "value": "binds"},
      {"measurement": "binding", "setting": "[4]", "value": "binds"}
    ]},
    {"binder": "Clone 21 scFv-myc-6xHis (soluble scFv from pET-26b) (scFv) scFv: MEVQLLESGGGLVQPGGSLRLSCAASGFTFSSYAMSWVRQAPGKGLEWVSSISYSGAYTAYADSVNGRFTISRDNSKNTLYLQMNSLRAEDTAVYYCAKSGTDFDYWGQGTLVTVSSGGGGSGGGGSGGGGSTDIQMTQSPSSLSASVGDRVTITCRASQSISSYLNWYQQKPGKAPKLLIYGASNLQSGVPSRFSGSGSGTDFTLTISSLQPEDFATYYCQQSNYDPSTFGQGTKVEIKEFEQKLISEEDLLEHHHHHH", "values": [
      {"measurement": "binding", "setting": "[3]", "value": "binds"},
      {"measurement": "binding", "setting": "[4]", "value": "binds"}
    ]},
    {"binder": "scFv 4 (pelB-VH-Linker-VL-6His), FITC-labelled (scFv, FITC-labelled (2.52 FITC molecules were labeled for each scFv antibody fragment)) scFv: MAEVKLHESGAGLVKPGASVEISCKATGYTFSSFWIEWVKQRPGHGLEWIGEILPGRGRTNYNEKFKGKATFTAETSSNTAYMQLSSLTSEDSAVYYCATGNTMVNMPYWGQGTTVTVSSGGGGSGGGGSGGGGSDIELTQSPSSLAVSAGEKVTMSCKSSQSLLNSGNQKNYLAWYQQKPGLPPKLLIYGASTRESGVPDRFTGSGSGTDFTLTISSVQAEDLAVYYCQNDHSYPLTFGAGTKLEIKRLEHHHHHH", "values": [
      {"measurement": "binding", "setting": "[5]", "value": "binds"}
    ]}
  ]
}
